Reference: publication PMC8660824
Read-outs that look alike come from different tables or passages of the source. These are yes or no findings as the source states them, for the method shown. In cells and extracts the contact can be indirect. Some binding calls cover weakened binding; strength is not graded here. Blank lines part the entries; values can stand above or below the molecule they belong to.

The chains behind the UniProt entries cited, without tags or fusion partners.
UniProt Q14980: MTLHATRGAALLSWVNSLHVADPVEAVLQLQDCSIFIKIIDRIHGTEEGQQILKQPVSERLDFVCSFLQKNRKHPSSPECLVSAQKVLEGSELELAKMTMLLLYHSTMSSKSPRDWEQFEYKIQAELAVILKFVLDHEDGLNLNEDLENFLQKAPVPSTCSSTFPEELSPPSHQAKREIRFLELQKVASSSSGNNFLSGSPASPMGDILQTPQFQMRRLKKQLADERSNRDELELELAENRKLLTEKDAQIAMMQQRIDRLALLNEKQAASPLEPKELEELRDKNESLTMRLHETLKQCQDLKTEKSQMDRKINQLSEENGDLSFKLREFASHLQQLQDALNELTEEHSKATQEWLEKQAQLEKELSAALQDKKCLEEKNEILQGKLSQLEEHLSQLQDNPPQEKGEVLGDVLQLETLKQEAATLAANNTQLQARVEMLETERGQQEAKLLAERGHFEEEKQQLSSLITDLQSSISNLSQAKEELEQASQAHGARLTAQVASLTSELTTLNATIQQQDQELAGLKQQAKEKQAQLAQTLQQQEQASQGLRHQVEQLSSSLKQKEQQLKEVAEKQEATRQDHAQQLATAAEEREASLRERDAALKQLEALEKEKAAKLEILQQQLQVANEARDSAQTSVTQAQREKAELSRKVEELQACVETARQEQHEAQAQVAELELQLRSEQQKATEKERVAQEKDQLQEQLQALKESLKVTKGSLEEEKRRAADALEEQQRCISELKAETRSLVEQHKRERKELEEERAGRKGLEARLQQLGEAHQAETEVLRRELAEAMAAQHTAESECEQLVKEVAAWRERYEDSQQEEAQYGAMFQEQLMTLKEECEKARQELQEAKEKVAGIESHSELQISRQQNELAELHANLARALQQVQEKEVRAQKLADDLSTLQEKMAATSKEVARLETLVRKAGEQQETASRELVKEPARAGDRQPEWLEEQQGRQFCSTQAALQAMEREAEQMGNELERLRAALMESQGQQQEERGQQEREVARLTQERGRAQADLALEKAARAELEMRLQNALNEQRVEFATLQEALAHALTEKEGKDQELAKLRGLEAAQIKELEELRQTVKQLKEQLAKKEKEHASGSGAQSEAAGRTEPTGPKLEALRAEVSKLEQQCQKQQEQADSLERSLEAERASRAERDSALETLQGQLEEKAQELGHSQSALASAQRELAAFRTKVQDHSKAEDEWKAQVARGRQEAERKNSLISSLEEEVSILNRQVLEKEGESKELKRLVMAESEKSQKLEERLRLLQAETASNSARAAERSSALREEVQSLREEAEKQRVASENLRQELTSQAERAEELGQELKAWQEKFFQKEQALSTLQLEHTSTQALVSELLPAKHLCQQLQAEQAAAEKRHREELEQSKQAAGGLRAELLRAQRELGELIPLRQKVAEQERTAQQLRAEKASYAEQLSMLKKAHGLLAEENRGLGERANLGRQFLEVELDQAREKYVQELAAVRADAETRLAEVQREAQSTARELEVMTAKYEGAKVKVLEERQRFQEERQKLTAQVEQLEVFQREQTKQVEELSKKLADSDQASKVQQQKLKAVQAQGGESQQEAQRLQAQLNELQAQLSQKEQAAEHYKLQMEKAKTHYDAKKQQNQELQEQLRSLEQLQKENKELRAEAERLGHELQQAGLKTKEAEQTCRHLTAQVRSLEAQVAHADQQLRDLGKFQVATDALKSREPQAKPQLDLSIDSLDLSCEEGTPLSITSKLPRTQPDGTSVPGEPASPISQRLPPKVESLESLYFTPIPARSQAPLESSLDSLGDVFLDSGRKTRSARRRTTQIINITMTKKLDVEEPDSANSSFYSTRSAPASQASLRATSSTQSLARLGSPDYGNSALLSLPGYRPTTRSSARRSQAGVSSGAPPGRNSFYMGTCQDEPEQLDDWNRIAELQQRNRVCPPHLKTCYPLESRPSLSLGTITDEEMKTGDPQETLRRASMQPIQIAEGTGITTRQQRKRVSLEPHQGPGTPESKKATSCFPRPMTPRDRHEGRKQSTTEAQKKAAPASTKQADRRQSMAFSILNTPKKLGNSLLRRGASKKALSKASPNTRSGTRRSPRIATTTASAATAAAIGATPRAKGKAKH
UniProt O00139: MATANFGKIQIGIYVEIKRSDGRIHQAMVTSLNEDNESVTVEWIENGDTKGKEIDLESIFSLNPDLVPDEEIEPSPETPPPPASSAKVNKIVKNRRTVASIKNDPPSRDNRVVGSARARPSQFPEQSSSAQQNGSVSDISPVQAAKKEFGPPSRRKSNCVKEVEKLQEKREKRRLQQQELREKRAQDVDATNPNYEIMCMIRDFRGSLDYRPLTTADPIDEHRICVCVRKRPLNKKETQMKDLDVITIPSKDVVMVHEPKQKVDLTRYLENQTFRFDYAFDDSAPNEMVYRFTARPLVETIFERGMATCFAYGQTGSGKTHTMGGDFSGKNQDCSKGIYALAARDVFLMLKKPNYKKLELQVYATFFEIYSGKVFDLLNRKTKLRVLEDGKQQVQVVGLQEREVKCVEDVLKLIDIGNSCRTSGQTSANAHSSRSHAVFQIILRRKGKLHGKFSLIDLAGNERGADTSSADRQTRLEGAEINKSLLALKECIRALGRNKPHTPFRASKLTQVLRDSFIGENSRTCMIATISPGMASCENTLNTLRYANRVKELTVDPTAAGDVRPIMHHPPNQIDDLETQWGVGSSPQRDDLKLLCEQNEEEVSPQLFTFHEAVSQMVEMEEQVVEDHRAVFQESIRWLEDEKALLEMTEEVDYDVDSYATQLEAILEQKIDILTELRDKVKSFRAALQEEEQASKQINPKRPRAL

What was measured:
Test in all cases: co-IP; mitotic (thymidine, then nocodazole) HEK293T cells transfected with GFP-tagged constructs; lysis buffer 20 mM Tris-HCl pH 8.0, 150 mM NaCl, 0.5% NP-40; GFP-Trap beads 1.5 h at 4 °C; western blot
[1] = target: GFP-NuMA (Nuclear Mitotic Apparatus protein, full-length) (human) (UniProt Q14980)
[2] = target: GFP-Kif2A (UniProt O00139)
[3] = target: GFP-NuMA (Nuclear Mitotic Apparatus protein, full-length) (human) (UniProt Q14980); remark: listed apart in the source

- binding [1]: binds
Molecule: Kif2A (from UniProt O00139 1-706)

- binding [2]: binds
Molecule: NuMA, endogenous (from UniProt Q14980 1-2115)

- binding [3]: binds
B1: KifC1 (protein, UniProt Q9BW19 1-673)
chain: MDPQRSPLLEVKGNIELKRPLIKAPSQLPLSGSRLKRRPDQMEDGLEPEKKRTRGLGATTKITTSHPRVPSLTTVPQTQGQTTAQKVSKKTGPRCSTAIATGLKNQKPVPAVPVQKSGTSGVPPMAGGKKPSKRPAWDLKGQLCDLNAELKRCRERTQTLDQENQQLQDQLRDAQQQVKALGTERTTLEGHLAKVQAQAEQGQQELKNLRACVLELEERLSTQEGLVQELQKKQVELQEERRGLMSQLEEKERRLQTSEAALSSSQAEVASLRQETVAQAALLTEREERLHGLEMERRRLHNQLQELKGNIRVFCRVRPVLPGEPTPPPGLLLFPSGPGGPSDPPTRLSLSRSDERRGTLSGAPAPPTRHDFSFDRVFPPGSGQDEVFEEIAMLVQSALDGYPVCIFAYGQTGSGKTFTMEGGPGGDPQLEGLIPRALRHLFSVAQELSGQGWTYSFVASYVEIYNETVRDLLATGTRKGQGGECEIRRAGPGSEELTVTNARYVPVSCEKEVDALLHLARQNRAVARTAQNERSSRSHSVFQLQISGEHSSRGLQCGAPLSLVDLAGSERLDPGLALGPGERERLRETQAINSSLSTLGLVIMALSNKESHVPYRNSKLTYLLQNSLGGSAKMLMFVNISPLEENVSESLNSLRFASKVNQCVIGTAQANRK
